According to the supplement of paper PMC6078165:
The reference is the same well before dosing, and untreated signal decays as well.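 Fibroblast labels name human fibroblasts: mostly primary ones from tissues such as uterus (C12385, HUF), lung (H6013), bone (Hs27A), adrenal (HADF) and skin (WS1), plus mammary HMF and breast cancer-associated Hs343T. The cancer cells are basal-like or mesenchymal-like triple-negative breast cancer lines. The paper calls a changed response a hit when it shifts by more than 3x the replicate standard deviation. The tissue of the other fibroblasts is not given here.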

Tested on: MDAMB468
Experiment: relative JC-1 red fluorescence (viability) vs pre-drug, coculture with fibroblast (fraction); higher = more viable cancer cells
Experimental: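 JC-1 labelled TNBC cells cocultured 1:1 (1,500 cells each) with CellTrace Violet stained primary or stromal fibroblasts in 384-well plates in FluoroBrite medium, treated with one of 42 anticancer drugs at 0.1, 1, 10 or 100 uM. JC-1 red fluorescence (mitochondrial integrity in cancer cells only) was read by plate reader every 8 h for 72 h. Values are normalised to each well's pre-drug value. The stock of one drug was tenfold lower, so its dose labels may be too high.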

O=C(O)C(=O)O.[NH-][C@@H]1CCCC[C@H]1[NH-].[Pt+2] [Oxaliplatin]
relative JC-1 red fluorescence
Details	8 h	16 h	24 h	32 h	40 h	48 h	56 h	64 h	72 h
0.1 µM, coculture fibroblast: C12385	0.873	0.879	0.899	0.8854	0.874	0.9168	0.901	0.915	0.93
0.1 µM, coculture fibroblast: H6013	0.8696	0.868	0.842	0.822	0.8161	0.844	0.832	0.84	0.784
0.1 µM, coculture fibroblast: H6019	0.848	0.845	0.85	0.837	0.82	0.844	0.8058	0.7897	0.775
0.1 µM, coculture fibroblast: H6076	0.9123	0.957	0.888	0.886	0.828	0.835	0.81	0.804	0.829
0.1 µM, coculture fibroblast: H6231	0.801	0.913	0.854	0.858	0.808	0.788	0.735	0.708	0.706
0.1 µM, coculture fibroblast: HADF	0.881	0.882	0.844	0.846	0.8184	0.832	0.81	0.83	0.7899
0.1 µM, coculture fibroblast: HCFa	0.8714	0.873	0.821	0.792	0.762	0.772	0.742	0.71	0.659
0.1 µM, coculture fibroblast: HCPF	0.8428	0.921	0.848	0.846	0.7823	0.761	0.71	0.709	0.702
0.1 µM, coculture fibroblast: HHSteC	0.894	0.8663	0.843	0.818	0.796	0.813	0.761	0.75	0.7
0.1 µM, coculture fibroblast: HMF	0.8222	0.9	0.844	0.835	0.782	0.773	0.739	0.73659	0.747
0.1 µM, coculture fibroblast: HPFa	0.909	0.876	0.84	0.776	0.76	0.769	0.713	0.696	0.623
0.1 µM, coculture fibroblast: HUF	0.886	0.84	0.827	0.783	0.762	0.766	0.744	0.752	0.749
0.1 µM, coculture fibroblast: Hs5	0.835	0.9801	0.9505	0.9371	0.8833	0.8716	0.842	0.818	0.848
0.1 µM, coculture fibroblast: Hs27A	0.854	0.869	0.818	0.81	0.793	0.805	0.781	0.766	0.725
0.1 µM, coculture fibroblast: Hs343T	0.871	0.953	0.91	0.889	0.812	0.796	0.763	0.75	0.75
0.1 µM, coculture fibroblast: WS1	0.858	0.815	0.805	0.773	0.749	0.751	0.749	0.75	0.77
1 µM, coculture fibroblast: C12385	0.8879	0.7997	0.7511	0.6845	0.6346	0.6109	0.5698	0.537	0.51641
1 µM, coculture fibroblast: H6013	0.8935	0.836	0.782	0.777	0.742	0.745	0.719	0.704	0.659
1 µM, coculture fibroblast: H6019	0.837	0.797	0.769	0.726	0.701	0.688	0.652	0.629	0.602
1 µM, coculture fibroblast: H6076	0.9572	0.962	0.906	0.917	0.856	0.841	0.802	0.786	0.83
1 µM, coculture fibroblast: H6231	0.855	0.935	0.923	0.885	0.856	0.831	0.775	0.75	0.734
1 µM, coculture fibroblast: HADF	0.882	0.819	0.768	0.748	0.693	0.683	0.641	0.625	0.583
1 µM, coculture fibroblast: HCFa	0.883	0.824	0.774	0.757	0.7	0.699	0.649	0.614	0.5659
1 µM, coculture fibroblast: HCPF	0.88197	0.975	0.871	0.845	0.794	0.762	0.71	0.684	0.667
1 µM, coculture fibroblast: HHSteC	0.9274	0.855	0.81	0.781	0.734	0.718	0.666	0.638	0.584
1 µM, coculture fibroblast: HMF	0.858	0.97476	0.8781	0.844	0.778	0.755	0.699	0.671	0.649
1 µM, coculture fibroblast: HPFa	0.91	0.8329	0.79	0.755	0.7004	0.6951	0.637	0.601	0.539
1 µM, coculture fibroblast: HUF	0.929	0.841	0.787	0.731	0.683	0.666	0.628	0.619	0.606
1 µM, coculture fibroblast: Hs5	0.825	0.949	0.893	0.866	0.8	0.768	0.727	0.688	0.707
1 µM, coculture fibroblast: Hs27A	0.8448	0.77	0.722	0.713	0.642	0.634	0.59	0.55896	0.5248
1 µM, coculture fibroblast: Hs343T	0.881	0.912	0.863	0.839	0.79	0.772	0.713	0.7	0.686
1 µM, coculture fibroblast: WS1	0.887	0.795	0.748	0.688	0.65	0.607	0.587	0.558	0.553
10 µM, coculture fibroblast: C12385	0.8509	0.8018	0.766	0.716	0.66	0.648	0.6133	0.582	0.564
10 µM, coculture fibroblast: H6013	0.8686	0.86	0.8032	0.7902	0.77	0.782	0.756	0.748	0.698
10 µM, coculture fibroblast: H6019	0.861	0.849	0.831	0.807	0.784	0.772	0.729	0.694	0.672
10 µM, coculture fibroblast: H6076	0.905	0.945	0.906	0.905	0.85	0.831	0.803	0.791	0.813
10 µM, coculture fibroblast: H6231	0.861	0.919	0.893	0.887	0.826	0.809	0.76	0.73	0.734
10 µM, coculture fibroblast: HADF	0.855	0.798	0.742	0.719	0.667	0.66	0.624	0.603	0.554
10 µM, coculture fibroblast: HCFa	0.845	0.816	0.746	0.708	0.64	0.63	0.5784	0.541	0.502
10 µM, coculture fibroblast: HCPF	0.839	0.9592	0.8796	0.853	0.809	0.78287	0.7386	0.733	0.723
10 µM, coculture fibroblast: HHSteC	0.867	0.8381	0.7733	0.737	0.692	0.683	0.627	0.601	0.556
10 µM, coculture fibroblast: HMF	0.802	0.967	0.87	0.826	0.769	0.744	0.686	0.676	0.652
10 µM, coculture fibroblast: HPFa	0.926	0.897	0.844	0.786	0.757	0.75	0.694	0.675	0.607
10 µM, coculture fibroblast: HUF	0.881	0.809	0.768	0.724	0.683	0.676	0.633	0.613	0.595
10 µM, coculture fibroblast: Hs5	0.978	0.967	0.887	0.865	0.813	0.792	0.77	0.737	0.755
10 µM, coculture fibroblast: Hs27A	0.86494	0.827	0.751	0.74	0.678	0.677	0.653	0.632	0.6
10 µM, coculture fibroblast: Hs343T	0.857	0.9783	0.896	0.845	0.766	0.741	0.703	0.685	0.65
10 µM, coculture fibroblast: WS1	0.835	0.743	0.672	0.631	0.582	0.544	0.513	0.481	0.459
100 µM, coculture fibroblast: C12385	0.8779	0.679	0.61	0.5528	0.491	0.47	0.4298	0.403	0.3874
100 µM, coculture fibroblast: H6013	0.873	0.748	0.669	0.62	0.601	0.597	0.551	0.527	0.461
100 µM, coculture fibroblast: H6019	0.828	0.7134	0.6248	0.53	0.4659	0.43	0.384	0.357	0.34
100 µM, coculture fibroblast: H6076	0.96	0.885	0.942	0.845	0.921	0.927	0.896	0.887	0.951
100 µM, coculture fibroblast: H6231	0.897	0.939	0.882	0.876	0.786	0.771	0.733	0.715	0.728
100 µM, coculture fibroblast: HADF	0.932	0.775	0.716	0.678	0.636	0.614	0.563	0.543	0.48
100 µM, coculture fibroblast: HCFa	0.911	0.7893	0.719	0.654	0.589	0.577	0.528	0.499	0.432
100 µM, coculture fibroblast: HCPF	0.879	0.818	0.927	0.91	0.839	0.817	0.77	0.762	0.752
100 µM, coculture fibroblast: HHSteC	0.922	0.862	0.816	0.764	0.726	0.726	0.647	0.627	0.553
100 µM, coculture fibroblast: HMF	0.883	0.804	0.924	0.898	0.838	0.823	0.765	0.749	0.73
100 µM, coculture fibroblast: HPFa	0.973	0.8158	0.7877	0.68911	0.656	0.653	0.591	0.56	0.49
100 µM, coculture fibroblast: HUF	0.958	0.821	0.754	0.71	0.65	0.641	0.584	0.575	0.562
100 µM, coculture fibroblast: Hs5	0.88	0.881	0.837	0.821	0.732	0.715	0.7	0.674	0.717
100 µM, coculture fibroblast: Hs27A	0.891	0.764	0.715	0.691	0.628	0.611	0.582	0.566	0.495
100 µM, coculture fibroblast: Hs343T	0.899	0.918	0.976	0.956	0.888	0.88	0.834	0.827	0.8223
100 µM, coculture fibroblast: WS1	0.8624	0.631	0.5249	0.431	0.374	0.341	0.312	0.29	0.282
